Experimental data: PubChem BioAssay AID248 (DTP/NCI, 2004)
The list does not hold the whole screen: it gathers tests that were run many times, whatever their T/C, doses with no T/C, and many T/C values between a quarter and a half above the control. Further doses and runs are listed elsewhere. T/C is the treated group as % of the vehicle group. Some entries give survivors of the animals treated and no T/C: the source holds a T/C of zero for them, seemingly a mark for toxic or unscored doses. Some doses without a T/C left all or most animals alive at the check, yet need not have been tolerated: the source hardly ever lists a survival T/C far under the control, and the zero likely stands for such cases as well. Survivors were counted at the toxicity check, usually on the fifth day, unless a day is given; later deaths do not show. Schedule codes are those of the source, taken here to give the interval after Q, in days (D) or hours (H), and the number of doses after X. Some entries hold several experiments; their values stand side by side, smallest first. Some schedule codes hold Z or #, which are not explained here. For survival time, the PubChem record calls one and a half times the control and up active, and a quarter to a half above the control has no call in these data; cut-offs in other NCI protocols can differ. Some T/C values carry the count of animals alive at the toxicity check (mostly the fifth day); without a count, all were alive then.

Test system: L1210 leukemia ip in BDF1 mice, survival T/C
Test: NCI In Vivo Anticancer Drug Screen. Data for tumor model L1210 Leukemia (intraperitoneal) in B6D2F1 (BDF1) mice
Conditions: T/C endpoint: mean survival time, higher T/C = longer survival
[1] = dose: 200.0 mg/kg/injection, schedule: Q04DX002 (ip), vehicle: Klucel (hydroxypropylcellulose) (HPC)
[2] = dose: 400.0 mg/kg/injection, schedule: Q04DX002 (ip), vehicle: Klucel (hydroxypropylcellulose) (HPC)
[3] = dose: 200.0 mg/kg/injection, schedule: Q04DX003 (ip), vehicle: Klucel (hydroxypropylcellulose) (HPC)
[4] = dose: 400.0 mg/kg/injection, schedule: Q04DX003 (ip), vehicle: Klucel (hydroxypropylcellulose) (HPC)
[5] = dose: 100.0 mg/kg/injection, schedule: Q04DX003 (ip), vehicle: saline
[6] = dose: 200.0 mg/kg/injection, schedule: Q04DX003 (ip), vehicle: saline
[7] = dose: 400.0 mg/kg/injection, schedule: Q04DX003 (ip), vehicle: saline

`COc1ccc(COC(=O)N=[N+]=[N-])cc1` was tested, and the survivor count (dose: 100.0 mg/kg/injection, schedule: Q01DX009 (ip), vehicle: Klucel (hydroxypropylcellulose) (HPC)) was 5 of 6, the survivor count (dose: 200.0 mg/kg/injection, schedule: Q01DX001 (ip), vehicle: Klucel (hydroxypropylcellulose) (HPC)) was 0 of 6 and the survivor count (dose: 400.0 mg/kg/injection, schedule: Q01DX001 (ip), vehicle: Klucel (hydroxypropylcellulose) (HPC)) was 1 of 6.

With `COc1ccccc1C(=Nc1ccccc1)N(O)c1ccccc1` the survivor count (dose: 10.0 mg/kg/injection, schedule: Q01DX009 (ip), vehicle: saline with Tween-80) was 3 of 6.

For `CN(C)C(=S)Oc1c(Cl)cc(S(=O)(=O)F)cc1Cl`, the survivor count (dose: 50.0 mg/kg/injection, schedule: Q04DX002 (ip), vehicle: Klucel (hydroxypropylcellulose) (HPC)) was 3 of 3.

With `CCSCCOP(=O)(N(C)C)N(C)C` the survivor count [1] was 3 of 3 and the survivor count [2] was 1 of 3.

With `CC(=O)n1c(COS(C)(=O)=O)nc2ccccc21` the survivor count (dose: 100.0 mg/kg/injection, schedule: Q01DX001 (ip), vehicle: carboxymethylcellulose (CMC)) was 1 of 6, the survivor count (dose: 200.0 mg/kg/injection, schedule: Q01DX001 (ip), vehicle: carboxymethylcellulose (CMC)) was 0 of 6 and the survivor count (dose: 400.0 mg/kg/injection, schedule: Q01DX001 (ip), vehicle: carboxymethylcellulose (CMC)) was 0 of 6.

In the case of `Cc1cccc[n+]1CC(=O)c1ccc(-c2ccc(C(=O)C[n+]3ccccc3C)cc2)cc1`, the survivor count (dose: 12.5 mg/kg/injection, schedule: Q04DX003 (ip), vehicle: Klucel (hydroxypropylcellulose) (HPC)) is reported as 0 of 6, the survivor count (dose: 25.0 mg/kg/injection, schedule: Q04DX003 (ip), vehicle: Klucel (hydroxypropylcellulose) (HPC)) is reported as 0 of 6 and the survivor count (dose: 50.0 mg/kg/injection, schedule: Q04DX003 (ip), vehicle: Klucel (hydroxypropylcellulose) (HPC)) is reported as 0 of 6. For the same compound, the survivor count (dose: 100.0 mg/kg/injection, schedule: Q04DX003 (ip), vehicle: Klucel (hydroxypropylcellulose) (HPC)) was 0 of 6, the survivor count [3] was 0 of 6 and the survivor count [4] was 0 of 6.

`CN(/C(N)=N/[N+](=O)[O-])c1cccnc1` was tested, and the survivor count (dose: 200.0 mg/kg/injection, schedule: Q01DX009 (ip), vehicle: Klucel (hydroxypropylcellulose) (HPC)) was 0 of 3, the survivor count [1] was 1 of 3 and the survivor count [2] was 0 of 3.

`C#CC(C)(O)c1ccccc1` (stereo not drawn) was tested, and the survivor count (dose: 400.0 mg/kg/injection, schedule: Q01DX009 (ip), vehicle: Klucel (hydroxypropylcellulose) (HPC)) was 3 of 6.

With `CC1=CC(=O)NC1=O` the survivor count [5] was 5 of 6, the survivor count [6] was 1 of 6 and the survivor count [7] was 0 of 6.

With `NNc1cccc(C(F)(F)F)c1` the survivor count (dose: 100.0 mg/kg/injection, schedule: Q01DX009 (ip), vehicle: saline with Tween-80) was 0 of 6, the survivor count (dose: 200.0 mg/kg/injection, schedule: Q04DX003 (ip), vehicle: saline with Tween-80) was 1 of 6 and the survivor count (dose: 400.0 mg/kg/injection, schedule: Q04DX003 (ip), vehicle: saline with Tween-80) was 0 of 6.

`CCC(=O)OC1(c2ccccc2)CCN(CCC(=O)c2ccccc2)CC1` was tested, and the survivor count [3] was 3 of 6 and the survivor count [4] was 0 of 6.

In the case of `NC(N)=N/N=C(\c1ccc(F)cc1)C1CC1`, the survivor count (dose: 60.0 mg/kg/injection, schedule: Q01DX Z (ip), vehicle: methylcellulose (MC)) is reported as 1 of 6, the survivor count (dose: 120.0 mg/kg/injection, schedule: Q01DX Z (ip), vehicle: methylcellulose (MC)) is reported as 0 of 6 and the survivor count (dose: 240.0 mg/kg/injection, schedule: Q01DX Z (oral), vehicle: methylcellulose (MC)) is reported as 1 of 6. For the same compound, the survivor count (dose: 480.0 mg/kg/injection, schedule: Q01DX Z (oral), vehicle: methylcellulose (MC)) was 1 of 6.

For `Cc1ccccc1N1CCN(c2ccccc2C)C1=C1N(c2ccccc2C)CCN1c1ccccc1C`, the survivor count (dose: 400.0 mg/kg/injection, schedule: Q04DX002 (ip), vehicle: DMSO) was 1 of 3.

With `CC1c2c(c3ccccc3n2C)CC[N+]1(C)C` (stereo not drawn) the survivor count (dose: 100.0 mg/kg/injection, schedule: Q04DX002 (ip), vehicle: carboxymethylcellulose (CMC)) was 0 of 3, 4 of 6, 5 of 6, 3 of 3, the survivor count (dose: 100.0 mg/kg/injection, schedule: Q04DX003 (ip), vehicle: carboxymethylcellulose (CMC)) was 6 of 6 and the survivor count (dose: 200.0 mg/kg/injection, schedule: Q04DX002 (ip), vehicle: carboxymethylcellulose (CMC)) was 0 of 3 and 2 of 6. For the same compound, the survivor count (dose: 200.0 mg/kg/injection, schedule: Q04DX003 (ip), vehicle: carboxymethylcellulose (CMC)) was 0 of 6, the survivor count (dose: 400.0 mg/kg/injection, schedule: Q04DX002 (ip), vehicle: carboxymethylcellulose (CMC)) was 0 of 3 and 2 of 6 and the survivor count (dose: 400.0 mg/kg/injection, schedule: Q04DX003 (ip), vehicle: carboxymethylcellulose (CMC)) was 0 of 6.

In the case of `NC(N)=N/N=C/CN1C(=O)c2ccccc2C1=O`, the survivor count (dose: 240.0 mg/kg/injection, schedule: Q01DX Z (ip), vehicle: methylcellulose (MC)) is reported as 0 of 6, the survivor count (dose: 360.0 mg/kg/injection, schedule: Q01DX Z (ip), vehicle: methylcellulose (MC)) is reported as 0 of 6 and the survivor count (dose: 480.0 mg/kg/injection, schedule: Q01DX Z (ip), vehicle: methylcellulose (MC)) is reported as 0 of 6. For the same compound, the survivor count (dose: 600.0 mg/kg/injection, schedule: Q01DX Z (oral), vehicle: methylcellulose (MC)) was 2 of 6, the survivor count (dose: 720.0 mg/kg/injection, schedule: Q01DX Z (oral), vehicle: methylcellulose (MC)) was 1 of 6 and the survivor count (dose: 840.0 mg/kg/injection, schedule: Q01DX Z (oral), vehicle: methylcellulose (MC)) was 0 of 6.

In the case of `C=CC(C)n1c(=O)c2c(ncn2C)n(C)c1=O` (stereo not drawn), the survivor count (dose: 6.25 mg/kg/injection, schedule: Q04DX003 (ip), vehicle: saline) is reported as 3 of 3, the survivor count (dose: 12.5 mg/kg/injection, schedule: Q04DX003 (ip), vehicle: saline) is reported as 0 of 3 and the survivor count (dose: 25.0 mg/kg/injection, schedule: Q04DX003 (ip), vehicle: saline) is reported as 0 of 3. For the same compound, the survivor count [5] was 0 of 3, the survivor count [6] was 0 of 3 and the survivor count [7] was 0 of 3.

In the case of `CCCCS(=O)(=O)OCCCCOS(=O)(=O)CCCC`, the survivor count (dose: 540.0 mg/kg/injection, schedule: Q01DX Z (ip), vehicle: saline) is reported as 0 of 6.

For `CN(C)C(C)(C)CO`, the survivor count (dose: 400.0 mg/kg/injection, schedule: Q01DX009 (ip), vehicle: saline) was 2 of 6.

For `N=C(N)c1ccc(OCCCOc2ccc(C(=N)N)cc2Br)c(Br)c1`, the T/C (dose: 12.0 mg/kg/injection, schedule: Q01DX Z (ip), vehicle: methylcellulose (MC)) was 127 % of control, the T/C (dose: 25.0 mg/kg/injection, schedule: Q01DX009 (ip), vehicle: saline) was 129 [4 of 6 alive] and 134 % of control and the survivor count (dose: 90.0 mg/kg/injection, schedule: Q01DX Z (ip), vehicle: methylcellulose (MC)) was 0 of 6. The survivor count [5] was 1 of 6, the survivor count [6] was 0 of 6 and the survivor count [7] was 2 of 6.

With `CCN(CC)C1=C(Cl)C(=O)C(=O)c2cccnc21` the survivor count (dose: 75.0 mg/kg/injection, schedule: Q04DX003 (ip), vehicle: saline) was 2 of 6, the survivor count (dose: 150.0 mg/kg/injection, schedule: Q01DX001 (ip), vehicle: saline) was 0 of 6 and the survivor count (dose: 300.0 mg/kg/injection, schedule: Q01DX001 (ip), vehicle: saline) was 0 of 6.

In the case of `O=C(O)C1CCSS1` (stereo not drawn), the survivor count (dose: 200.0 mg/kg/injection, schedule: Q01DX009 (ip), vehicle: saline) is reported as 2 of 6, the survivor count (dose: 300.0 mg/kg/injection, schedule: Q01DX009 (ip), vehicle: saline) is reported as 0 of 6 and the survivor count [7] is reported as 0 of 6.

With `C#CCCCCC#CCCCCCl` the survivor count (dose: 400.0 mg/kg/injection, schedule: Q04DX003 (ip), vehicle: acetone) was 3 of 6.

`O=C(/C=C(\Cl)C(=O)NO)NO` was tested, and the survivor count (dose: 200.0 mg/kg/injection, schedule: Q01DX009 (ip), vehicle: acetone) was 0 of 6 and the survivor count (dose: 400.0 mg/kg/injection, schedule: Q01DX009 (ip), vehicle: acetone) was 0 of 6.
